Test results from patent publication US10563263B2, “Genetic polymorphisms associated with statin response and cardiovascular diseases, methods of detection and uses thereof” (CELERA CORPORATION, priority 2010, dated 2020).
The source gives many values for each of these; only a part stands here.

Test system: CHD
Assay: Meta-analysis of CARE and WOSCOPS combined, synergy index, CHD endpoint
Assay type: in vivo, human
Text: Tables 4-5 provide meta-analyses of CARE and WOSCOPS combined (2nd section of each table) for two endpoints (CHD and CVD) and three genetic models (dominant, recessive, and additive), as well as logistic regression analyses of CARE (3rd section of each table) and WOSCOPS (4th section of each table) individually.
Tables 12 and 17 provide results of meta-analysis of the CARE and WOSCOPS sample sets combined by direct genotyping and by imputing genotypes.
“P” indicates the p-value, and “P(R)” (or “P.R.”) indicates the p-value random effect. Both of these are p-values corresponding to a statistical test of whether the combined synergy index is equal to one but use different assumptions to derive the p-value. “P” is calculated using a fixed effects model, and “P(R)” is calculated using a random effects model.
“OR” indicates the odds ratio (synergy index) calculated from a fixed effects model, and “OR(R)” (or “OR.R.”) indicates the odds ratio (synergy index) calculated from a random effects model.

[1] = rs2488557 allele C DOMINANT Imputed
[2] = rs2560708 allele T ADDITIVE Imputed
[3] = rs2617841 allele G DOMINANT Imputed
[4] = rs2622499 allele G DOMINANT Imputed
[5] = rs2642936 allele T ADDITIVE Imputed
[6] = rs2660633 allele A DOMINANT Imputed
[7] = rs2660634 allele C DOMINANT Imputed
[8] = rs2660648 allele A ADDITIVE Imputed
[9] = rs2660648 allele A DOMINANT Imputed
[10] = rs2681505 allele T ADDITIVE Imputed
[11] = rs2832634 allele G ADDITIVE Imputed
[12] = rs2832637 allele T ADDITIVE Imputed
[13] = rs2843167 allele A DOMINANT Imputed
[14] = rs2876227 allele C ADDITIVE Imputed
[15] = rs2876227 allele C GENOTYPIC Imputed
[16] = rs2882097 allele A DOMINANT Imputed
[17] = rs2909862 allele G DOMINANT Imputed
[18] = rs3001945 allele T DOMINANT Imputed
[19] = rs3011020 allele C DOMINANT Imputed
[20] = rs3743794 allele G DOMINANT Imputed
[21] = rs3756154 allele C ADDITIVE Imputed
[22] = rs3756154 allele C DOMINANT Imputed
[23] = rs3775850 allele A DOMINANT Imputed
[24] = rs3775851 allele C DOMINANT Imputed
[25] = rs3793044 allele C ADDITIVE Imputed
[26] = rs3793044 allele C DOMINANT Imputed
[27] = rs3793053 allele C DOMINANT Imputed
[28] = rs3796246 allele G DOMINANT Imputed
[29] = rs3806003 allele A ADDITIVE Imputed
[30] = rs3806003 allele A DOMINANT Imputed
[31] = rs3806004 allele T DOMINANT Imputed
[32] = rs3806010 allele T DOMINANT Imputed
[33] = rs3806014 allele T DOMINANT Imputed
[34] = rs3806015 allele A DOMINANT Imputed
[35] = rs3806018 allele A DOMINANT Imputed
[36] = rs3806019 allele A DOMINANT Imputed
[37] = rs3806024 allele T DOMINANT Imputed
[38] = rs3915080 allele A GENOTYPIC Imputed
[39] = rs3942254 allele T ADDITIVE Imputed
[40] = rs3942254 allele T DOMINANT Imputed
[41] = rs3945085 allele A DOMINANT Imputed
[42] = rs3976737 allele G ADDITIVE Imputed
[43] = rs4029119 allele G ADDITIVE Imputed
[44] = rs4029119 allele G DOMINANT Imputed
[45] = rs4076201 allele G GENOTYPIC Imputed

CC[C@H](C)C(=O)O[C@H]1C[C@H](O)C=C2C=C[C@H](C)[C@H](CC[C@@H](O)C[C@@H](O)CC(=O)O)[C@H]21 [Pravastatin, pravastatin] was tested, and the OR [1] was 0.5776, the “OR(R)” value [1] was 0.5776 and the “Meta-analysis OR” value (rs2492367 allele A vs G (ref)) was 0.61. For the same molecule, the “Meta-analysis OR” value (rs2495295 allele G vs A (ref)) was 0.66, the OR [2] was 0.6487 and the “OR(R)” value [2] was 0.6487. The OR [3] was 0.633, the “OR(R)” value [3] was 0.633 and the OR [4] was 0.6573. The “OR(R)” value [4] was 0.6573, the OR [5] was 1.4936 and the “OR(R)” value [5] was 1.4936. The OR [6] was 0.6278, the “OR(R)” value [6] was 0.6278 and the OR [7] was 0.6278. The “OR(R)” value [7] was 0.6278, the OR [8] was 0.6664 and the “OR(R)” value [8] was 0.6664. For the same molecule, the OR [9] was 0.6016, the “OR(R)” value [9] was 0.6016 and the OR [10] was 0.6474. For the same molecule, the “OR(R)” value [10] was 0.6474, the OR [11] was 1.8637 and the “OR(R)” value [11] was 1.8637. The OR [12] was 1.8637, the “OR(R)” value [12] was 1.8637 and the OR [13] was 0.6208. For the same molecule, the “OR(R)” value [13] was 0.6208, the “Meta-analysis OR” value (rs2843171 allele A vs G (ref)) was 0.64 and the “Meta-analysis OR” value (rs2869680, A1 (non-ref) A, A2 (ref) G) was 0.75. For the same molecule, the OR [14] was 1.3526, the “OR(R)” value [14] was 1.3526 and the OR [15] was 1.9073. For the same molecule, the “OR(R)” value [15] was 1.9073, the “Meta-analysis OR” value (rs2880563, A1 (non-ref) G, A2 (ref) A) was 1.41 and the OR [16] was 1.5819. For the same molecule, the “OR(R)” value [16] was 1.5819, the OR [17] was 1.7275 and the “OR(R)” value [17] was 1.7275. For the same molecule, the OR [18] was 1.5254, the “OR(R)” value [18] was 1.5254 and the OR [19] was 1.4992. The “OR(R)” value [19] was 1.4992, the “Meta-analysis OR” value (rs3732136, A1 (non-ref) A, A2 (ref) G) was 1.51 and the OR [20] was 0.6224. For the same molecule, the “OR(R)” value [20] was 0.6224, the OR [21] was 0.7236 and the “OR(R)” value [21] was 0.7236. The OR [22] was 0.6536, the “OR(R)” value [22] was 0.6536 and the “Meta-analysis OR” value (rs3759607 allele G vs A (ref)) was 1.96. For the same molecule, the OR [23] was 0.6779, the “OR(R)” value [23] was 0.6779 and the OR [24] was 0.6839. For the same molecule, the “OR(R)” value [24] was 0.6839, the OR [25] was 1.9638 and the “OR(R)” value [25] was 1.9638. The OR [26] was 2.0697, the “OR(R)” value [26] was 2.0697 and the OR [27] was 1.9787. The “OR(R)” value [27] was 1.9787, the OR [28] was 0.5398 and the “OR(R)” value [28] was 0.5398. The OR [29] was 1.9638, the “OR(R)” value [29] was 1.9638 and the OR [30] was 2.0697. The “OR(R)” value [30] was 2.0697, the OR [31] was 1.9576 and the “OR(R)” value [31] was 1.9576. For the same molecule, the OR [32] was 1.9576, the “OR(R)” value [32] was 1.9576 and the OR [33] was 1.9649. The “OR(R)” value [33] was 1.9649, the OR [34] was 1.9576 and the “OR(R)” value [34] was 1.9576. The OR [35] was 1.9419, the “OR(R)” value [35] was 1.9419 and the OR [36] was 1.9576. The “OR(R)” value [36] was 1.9576, the OR [37] was 1.9787 and the “OR(R)” value [37] was 1.9787. The OR [38] was 2.0907, the “OR(R)” value [38] was 2.0907 and the OR [39] was 0.7166. For the same molecule, the “OR(R)” value [39] was 0.7166, the OR [40] was 0.6139 and the “OR(R)” value [40] was 0.6139. The OR [41] was 1.5947, the “OR(R)” value [41] was 1.5947 and the OR [42] was 0.6147. For the same molecule, the “OR(R)” value [42] was 0.6147, the OR [43] was 0.2569 and the “OR(R)” value [43] was 0.2569. For the same molecule, the OR [44] was 0.2637, the “OR(R)” value [44] was 0.2637 and the OR [45] was 3.0129. For the same molecule, the “OR(R)” value [45] was 3.0129 and the OR (rs4076201 allele G RECESSIVE Imputed) was 2.9721.
